# From patent US10081665B2, “Peptides and combination of peptides for use in immunotherapy against various tumors” (immatics biotechnologies GmbH, priority 2015, dated 2018)
# System: cancer tissues compared to normal tissues
# Test: Identification and label-free relative LC-MS quantitation of HLA-presented tumor associated peptides (presentation profiles)
# Parameters: species or system human
# Conditions: for cancer tissues where the peptide was found to be presented / normal tissues where the peptide was found to be presented: 7A-C, more than 320 normal tissue samples and 462 cancer samples analysed
# [1] = FIG. 1A-D, more than 170 normal tissue samples and 376 cancer samples analysed
Substance,cancer tissues where the peptide was found to be presented (FIG. 1E-J),normal tissues where the peptide was found to be presented (FIG. 1E-J),cell lines where the peptide was found to be presented (FIG. 1E-J),cancer tissue samples where the peptide was found to be presented [1],normal tissue samples where the peptide was found to be presented [1]
SEQ ID NO.: 152: peptide found in CXCR5 (gene looked up) (ILVTSIFFL; listed as Homo sapiens),16 samples,6 samples,–,–,–
SEQ ID NO.: 2 (SVLEKEIYSI; listed as Homo sapiens),52 samples,2 samples,4 cell lines,–,–
SEQ ID NO.: 1: peptide found in CENPE (gene looked up) (KLQEKIQEL; listed as Homo sapiens),–,–,–,31 samples,2 samples
SEQ ID NO.: 11 (LLDPKTIFL; listed as Homo sapiens),–,–,–,13 samples,–
